Values from PubChem BioAssay AID1259405 (NCATS, 2018)
Screen: 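Knock-downs that lift recombinant protein yield in hamster ovary cells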 (primary screen). Cell system: Chinese hamster CHO-K1 ovary cells with stable secreted eGFP expression. Knock-down reagent: single siRNA against mouse genes, 0.8 pmol siRNA per well (2 µl of 400 nM stock). Duration: 3 days. Measured: 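Per-well intracellular GFP measured by laser scanning cytometry, plus viability from ATP luminescence, each relative to plate median of non-targeting control wells, in %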. Scale: GFP, % of control: higher = more GFP per well, higher productivity; viability (ATP), % of control: higher = more viable cells (more ATP). Rule for the call: 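Called active when intracellular GFP, relative to negative control, is at or above 120%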.
In all, the deposit lists about 50,000 reagents; this is an unselected part. About 4,000 of all reagents (8%) were called active. 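Mouse siRNA library applied to hamster cells; one well for each siRNA.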 The numbers tell different reagents against one gene apart.

Against 4930465K10Rik #1, the values are GFP, % of control 82.7; viability (ATP), % of control 58.4; inactive.
4930465K10Rik #2 gave GFP, % of control 134; viability (ATP), % of control 98.4; active.
After knock-down of 4930465K10Rik #3, the screen gave GFP, % of control 61.6; viability (ATP), % of control 71.9; inactive.
With knock-down of 1600012H06Rik #1, the screen gave GFP, % of control 59.3; viability (ATP), % of control 70.9; inactive.
After knock-down of 1600012H06Rik #2 the results were GFP, % of control 89; viability (ATP), % of control 82.7; inactive.
Silencing of 1600012H06Rik #3 came out at: GFP, % of control 74.5; viability (ATP), % of control 80.4; inactive.
Depletion of Rnf31 #1 resulted in: GFP, % of control 107; viability (ATP), % of control 91.2; inactive.
Against Rnf31 #2 the deposit lists GFP, % of control 26.1; viability (ATP), % of control 58.5; inactive.
With knock-down of Rnf31 #3, the screen gave GFP, % of control 50.2; viability (ATP), % of control 69.6; inactive.
Anln #1 scored GFP, % of control 86; viability (ATP), % of control 46.3; inactive.
For Anln #2, the values are GFP, % of control 131; viability (ATP), % of control 119; active.
After knock-down of Anln #3, the screen gave GFP, % of control 86.5; viability (ATP), % of control 49.4; inactive.
Bcl10 #1 showed GFP, % of control 23.7; viability (ATP), % of control 58.4; inactive.
After knock-down of Bcl10 #2, the record shows GFP, % of control 81.3; viability (ATP), % of control 101; inactive.
Against Bcl10 #3 the deposit lists GFP, % of control 160; viability (ATP), % of control 159; active.
For Ttc19 #1, the values are GFP, % of control 86.9; viability (ATP), % of control 70.1; inactive.
For Ttc19 #2 the deposit lists GFP, % of control 57; viability (ATP), % of control 63.2; inactive.
Knock-down of Ttc19 #3 resulted in: GFP, % of control 80.9; viability (ATP), % of control 68; inactive.
Depletion of Scn1b #1 gave: GFP, % of control 112; viability (ATP), % of control 92.3; inactive.
For Scn1b #2, the entry reads GFP, % of control 76.7; viability (ATP), % of control 63.2; inactive.
After knock-down of Scn1b #3 the results were GFP, % of control 109; viability (ATP), % of control 88; inactive.
For Prrg4 #1, the entry reads GFP, % of control 55.9; viability (ATP), % of control 59; inactive.
For Prrg4 #2, the entry reads GFP, % of control 79.1; viability (ATP), % of control 58.6; inactive.
Against Prrg4 #3 the deposit lists GFP, % of control 87.1; viability (ATP), % of control 88.6; inactive.

Targets listed so far whose gene name begins with R or r (3):
Rnf31 #1 → GFP, % of control = 107; viability (ATP), % of control = 91.2; outcome = inactive
Rnf31 #2 → GFP, % of control = 26.1; viability (ATP), % of control = 58.5; outcome = inactive
Rnf31 #3 → GFP, % of control = 50.2; viability (ATP), % of control = 69.6; outcome = inactive

Continued:
Dnm2 #1 showed GFP, % of control 73.5; viability (ATP), % of control 82.7; inactive.
For Dnm2 #2 the deposit lists GFP, % of control 42.4; viability (ATP), % of control 46.2; inactive.
Dnm2 #3 showed GFP, % of control 62.8; viability (ATP), % of control 56.7; inactive.
After knock-down of Son #1, the record shows GFP, % of control 82.7; viability (ATP), % of control 45.4; inactive.
Son #2 gave GFP, % of control 30.8; viability (ATP), % of control 23.7; inactive.
With knock-down of Son #3, the record shows GFP, % of control 68.9; viability (ATP), % of control 61.6; inactive.
For Bnip2 #1, the entry reads GFP, % of control 81.2; viability (ATP), % of control 54.4; inactive.
Bnip2 #2 scored GFP, % of control 71.5; viability (ATP), % of control 74.7; inactive.
Bnip2 #3 scored GFP, % of control 109; viability (ATP), % of control 114; inactive.
Ppp1r1b #1 gave GFP, % of control 45.6; viability (ATP), % of control 32.4; inactive.
After knock-down of Ppp1r1b #2, the record shows GFP, % of control 107; viability (ATP), % of control 98.7; inactive.
For Ppp1r1b #3, the values are GFP, % of control 84.7; viability (ATP), % of control 68.6; inactive.
Knock-down of Sprr2i #1 came out at: GFP, % of control 74.6; viability (ATP), % of control 76.9; inactive.
For Sprr2i #2, the values are GFP, % of control 68.2; viability (ATP), % of control 82.3; inactive.
Against Sprr2i #3, the entry reads GFP, % of control 164; viability (ATP), % of control 153; active.
P4ha3 #1 showed GFP, % of control 103; viability (ATP), % of control 99.6; inactive.
With knock-down of P4ha3 #2, the record shows GFP, % of control 194; viability (ATP), % of control 152; active.
With knock-down of P4ha3 #3 the results were GFP, % of control 83.9; viability (ATP), % of control 60.2; inactive.
Arhgef18 #1 gave GFP, % of control 74; viability (ATP), % of control 80.8; inactive.
For Arhgef18 #2, the entry reads GFP, % of control 107; viability (ATP), % of control 51.4; inactive.
Against Arhgef18 #3, the values are GFP, % of control 46.5; viability (ATP), % of control 79.4; inactive.
With knock-down of Akr1a1 #1, the screen gave GFP, % of control 52.9; viability (ATP), % of control 59.2; inactive.
For Akr1a1 #2 the deposit lists GFP, % of control 60.2; viability (ATP), % of control 59.1; inactive.
Akr1a1 #3 scored GFP, % of control 81.1; viability (ATP), % of control 85; inactive.
Depletion of Gulo #1 gave: GFP, % of control 95.2; viability (ATP), % of control 86.6; inactive.
Gulo #2 scored GFP, % of control 95.1; viability (ATP), % of control 84.7; inactive.
With knock-down of Gulo #3, the screen gave GFP, % of control 35.8; viability (ATP), % of control 51.1; inactive.
Against Piezo2 #1, the entry reads GFP, % of control 48.2; viability (ATP), % of control 34.7; inactive.
Depletion of Piezo2 #2 came out at: GFP, % of control 68.7; viability (ATP), % of control 80.1; inactive.
Depletion of Piezo2 #3 resulted in: GFP, % of control 81.2; viability (ATP), % of control 101; inactive.
